# Assay results taken from paper PMC4299599, “Quantification of cytosolic interactions identifies Ede1 oligomers as key organizers of endocytosis” (Molecular Systems Biology, 2014).
# These are yes or no findings as the source states them, for the method shown. For part of these data: Where a sequence is shown, tags or fusion partners need not be part of it.
# T1: Apl3 (S. cerevisiae, UniProt P38065 1-1025)
# T1 construct: Apl3, subunit of the AP2 complex, S. cerevisiae; also called Apl3-3myeGFP; Apl3-3mCherry; source: chromosomally tagged at the endogenous locus, in the cytoplasm of living S. cerevisiae cells
# T1 sequence (looked up): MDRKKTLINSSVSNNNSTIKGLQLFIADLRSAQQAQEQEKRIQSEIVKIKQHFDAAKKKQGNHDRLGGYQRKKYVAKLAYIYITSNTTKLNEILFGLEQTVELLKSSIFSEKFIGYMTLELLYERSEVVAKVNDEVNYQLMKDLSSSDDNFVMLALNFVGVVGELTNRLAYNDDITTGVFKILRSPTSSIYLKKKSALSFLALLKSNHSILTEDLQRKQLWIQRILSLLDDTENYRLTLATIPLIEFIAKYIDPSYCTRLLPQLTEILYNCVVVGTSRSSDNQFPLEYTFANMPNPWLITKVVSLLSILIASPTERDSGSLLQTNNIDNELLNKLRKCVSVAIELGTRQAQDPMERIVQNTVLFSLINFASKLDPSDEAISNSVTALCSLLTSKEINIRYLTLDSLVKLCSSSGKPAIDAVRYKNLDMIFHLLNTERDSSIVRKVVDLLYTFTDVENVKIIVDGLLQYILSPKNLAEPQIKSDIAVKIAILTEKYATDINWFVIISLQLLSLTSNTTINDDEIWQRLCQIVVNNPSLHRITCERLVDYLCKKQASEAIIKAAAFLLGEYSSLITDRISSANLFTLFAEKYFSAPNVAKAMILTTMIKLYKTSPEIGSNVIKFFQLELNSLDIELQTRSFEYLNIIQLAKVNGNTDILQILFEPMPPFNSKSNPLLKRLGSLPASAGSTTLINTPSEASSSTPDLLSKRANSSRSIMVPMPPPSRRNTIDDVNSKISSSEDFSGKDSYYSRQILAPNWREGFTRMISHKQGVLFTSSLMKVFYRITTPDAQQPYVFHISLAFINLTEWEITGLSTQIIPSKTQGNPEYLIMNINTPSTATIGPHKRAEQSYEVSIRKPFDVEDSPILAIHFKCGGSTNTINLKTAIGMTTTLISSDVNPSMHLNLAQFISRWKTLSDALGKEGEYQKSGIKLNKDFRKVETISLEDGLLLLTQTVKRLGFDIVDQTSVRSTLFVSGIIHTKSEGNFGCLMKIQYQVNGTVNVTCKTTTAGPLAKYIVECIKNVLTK
# T2: Ede1 (S. cerevisiae) (UniProt P34216)
# T2 sequence: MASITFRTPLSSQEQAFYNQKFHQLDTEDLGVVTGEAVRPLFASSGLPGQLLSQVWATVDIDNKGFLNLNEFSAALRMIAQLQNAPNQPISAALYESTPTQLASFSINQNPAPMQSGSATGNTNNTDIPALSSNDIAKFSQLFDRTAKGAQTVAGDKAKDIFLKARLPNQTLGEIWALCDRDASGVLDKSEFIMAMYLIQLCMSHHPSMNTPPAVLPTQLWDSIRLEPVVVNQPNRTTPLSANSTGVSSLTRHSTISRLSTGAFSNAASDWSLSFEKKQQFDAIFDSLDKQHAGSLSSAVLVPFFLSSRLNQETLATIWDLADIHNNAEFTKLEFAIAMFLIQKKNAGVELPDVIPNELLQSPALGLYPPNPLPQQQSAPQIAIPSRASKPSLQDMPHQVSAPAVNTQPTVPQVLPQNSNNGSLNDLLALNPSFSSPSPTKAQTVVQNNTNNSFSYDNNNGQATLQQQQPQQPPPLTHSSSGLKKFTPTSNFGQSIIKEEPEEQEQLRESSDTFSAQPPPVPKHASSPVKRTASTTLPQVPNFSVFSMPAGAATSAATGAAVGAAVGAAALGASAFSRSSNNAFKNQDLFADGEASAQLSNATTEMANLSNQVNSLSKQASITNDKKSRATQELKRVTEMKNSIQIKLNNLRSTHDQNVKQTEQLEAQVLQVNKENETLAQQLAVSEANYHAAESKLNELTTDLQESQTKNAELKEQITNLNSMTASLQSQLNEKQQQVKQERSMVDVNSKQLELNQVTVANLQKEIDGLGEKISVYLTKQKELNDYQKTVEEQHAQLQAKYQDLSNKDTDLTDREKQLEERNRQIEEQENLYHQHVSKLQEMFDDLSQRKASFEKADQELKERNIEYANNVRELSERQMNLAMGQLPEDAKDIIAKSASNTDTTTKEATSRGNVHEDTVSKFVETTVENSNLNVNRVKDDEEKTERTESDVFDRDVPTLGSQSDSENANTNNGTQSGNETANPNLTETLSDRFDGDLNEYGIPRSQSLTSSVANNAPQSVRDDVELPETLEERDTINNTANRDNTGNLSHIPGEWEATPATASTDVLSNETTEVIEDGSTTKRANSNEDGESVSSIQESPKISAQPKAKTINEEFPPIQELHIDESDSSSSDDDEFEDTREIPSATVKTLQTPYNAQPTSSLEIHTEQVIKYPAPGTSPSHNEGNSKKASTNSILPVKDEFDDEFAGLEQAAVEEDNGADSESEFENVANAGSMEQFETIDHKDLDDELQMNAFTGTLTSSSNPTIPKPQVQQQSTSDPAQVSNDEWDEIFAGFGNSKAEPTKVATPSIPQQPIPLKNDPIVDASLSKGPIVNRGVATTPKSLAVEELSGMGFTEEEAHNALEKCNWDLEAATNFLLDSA
# T3: Ste11-3mCherry (S. cerevisiae, UniProt P23561 1-717)
# T3 construct: Ste11, S. cerevisiae; negative control of FCCS; source: S. cerevisiae strain Don1-eGFP, Ste11-3mCherry, in living cells
# T3 sequence (looked up): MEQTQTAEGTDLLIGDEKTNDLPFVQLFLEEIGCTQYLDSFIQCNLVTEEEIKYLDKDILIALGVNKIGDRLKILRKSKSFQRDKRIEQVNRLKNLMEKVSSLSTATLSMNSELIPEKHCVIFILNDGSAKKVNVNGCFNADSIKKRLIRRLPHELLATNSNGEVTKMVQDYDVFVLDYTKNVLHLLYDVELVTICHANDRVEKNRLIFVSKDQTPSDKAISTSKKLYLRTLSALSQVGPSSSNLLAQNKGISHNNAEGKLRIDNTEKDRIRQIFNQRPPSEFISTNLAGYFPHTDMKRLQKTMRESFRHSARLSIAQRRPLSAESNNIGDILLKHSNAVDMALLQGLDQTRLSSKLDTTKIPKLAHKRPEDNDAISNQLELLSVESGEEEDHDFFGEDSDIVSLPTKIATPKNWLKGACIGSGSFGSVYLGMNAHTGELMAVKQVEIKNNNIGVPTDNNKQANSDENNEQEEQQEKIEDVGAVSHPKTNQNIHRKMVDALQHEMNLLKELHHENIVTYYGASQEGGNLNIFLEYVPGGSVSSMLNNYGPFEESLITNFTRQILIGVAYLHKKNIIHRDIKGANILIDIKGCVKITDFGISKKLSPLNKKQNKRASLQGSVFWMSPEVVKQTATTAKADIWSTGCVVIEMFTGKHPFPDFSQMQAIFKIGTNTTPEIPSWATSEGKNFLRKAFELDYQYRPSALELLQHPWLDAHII
# B1: Apl3 (protein, UniProt P38065 1-1025)
# chain: T1 sequence (looked up)
# B2: Don1-eGFP (natural protein, S. cerevisiae, UniProt Q05610 1-365, looked up)
# chain: MGKKNRKGKENNAAKTSFLKVENIKNTNSGLELPSQDYTNVEEKESSPKTDFPLITKEHVNTKTDSNILDYPTIGDLVSSVEKLCVLKELKIAFPEVDDTLIKAILIASQGVLEPAFNSLLYYSSPEENTDFALPMKPISVEDYSKINVSEILQREIFDDIEDEFSGQGINGSMVISKIESELSSLAEHIGNISTPGSNREVAESTRNVAVAEGHNTILSNEDSILKGKEKGKEEEKEKGEEKGVNSLKGAAVKVVAKSLKNNRIPVTVKRNEPSNNLFDVLNCDESEEEEEQDVETNTSNQERKNQGGNTEVPEAQRDSADRLPAKDDGGYKSAFGTDSCGLFAADAKDEKKQVHPSRQELSFT
# notes: Don1, S. cerevisiae; negative control of FCCS; source: S. cerevisiae strain Don1-eGFP, Ste11-3mCherry, in living cells
# B3: ede1Δ591–1381 (myeGFP / mCherry fusions) (domain or fragment, S. cerevisiae, UniProt P34216 1-590, looked up)
# chain: MASITFRTPLSSQEQAFYNQKFHQLDTEDLGVVTGEAVRPLFASSGLPGQLLSQVWATVDIDNKGFLNLNEFSAALRMIAQLQNAPNQPISAALYESTPTQLASFSINQNPAPMQSGSATGNTNNTDIPALSSNDIAKFSQLFDRTAKGAQTVAGDKAKDIFLKARLPNQTLGEIWALCDRDASGVLDKSEFIMAMYLIQLCMSHHPSMNTPPAVLPTQLWDSIRLEPVVVNQPNRTTPLSANSTGVSSLTRHSTISRLSTGAFSNAASDWSLSFEKKQQFDAIFDSLDKQHAGSLSSAVLVPFFLSSRLNQETLATIWDLADIHNNAEFTKLEFAIAMFLIQKKNAGVELPDVIPNELLQSPALGLYPPNPLPQQQSAPQIAIPSRASKPSLQDMPHQVSAPAVNTQPTVPQVLPQNSNNGSLNDLLALNPSFSSPSPTKAQTVVQNNTNNSFSYDNNNGQATLQQQQPQQPPPLTHSSSGLKKFTPTSNFGQSIIKEEPEEQEQLRESSDTFSAQPPPVPKHASSPVKRTASTTLPQVPNFSVFSMPAGAATSAATGAAVGAAVGAAALGASAFSRSSNNAFKNQDLF
# notes: 1myeGFP fusion for FCS; diploid with one myeGFP and one mCherry allele for FCCS; Each copy carries one tag; also called ede1^Δ591–1391; source: S. cerevisiae, endogenously expressed truncation mutant, in living cells; not shown: myeGFP, C-terminal, kept; mCherry, C-terminal, kept
# What was measured:
# Apl3 [1] = target: T1, Apl3; assay: condition: detection range of FCCS: apparent KD up to ~1 μM; fluorescence cross-correlation spectroscopy (FCCS); self-interaction: living diploid yeast cells with one allele fused to (3)myeGFP and one to (3)mCherry, cytoplasm; apparent (effective) KD, to be taken as the upper limit since complexes of one colour are not seen
# Apl3 [2] = target: T1, Apl3; assay: condition: 1000 nM (only Kdeff-values < 1000 nM are shown); fluorescence cross-correlation spectroscopy (FCCS); in the cytoplasm of living yeast cells; first-named protein green (3myeGFP or 1myeGFP; eGFP for Don1), second red (3mCherry); self-interaction in diploid strains with one allele of each colour; apparent or effective KD (Kdeff) from single-cell measurements; only Kdeff values < 1000 nM are shown; values for self-interactions are upper limits
# Ede1 (S. cerevisiae) = target: T2, Ede1 (S. cerevisiae); assay: as above
# Ste11-3mCherry = target: T3, Ste11-3mCherry; assay: fluorescence cross-correlation spectroscopy (FCCS); living yeast cells, observation volume in the cytoplasm; one protein tagged with (3)myeGFP/eGFP and the other with 3mCherry in the same strain; apparent (effective) KD; interactions up to ~1 μM detectable
# [3] = target: ede1Δ591–1381 (myeGFP / mCherry fusions) (S. cerevisiae) (UniProt P34216); assay: FCS molecular brightness (counts per particle per second); living yeast cells, cytoplasm; brightness of GFP-tagged particles compared with 3myeGFP and Ent2-3myeGFP (monomers) or with wild-type Ede1; average of all particles
# [4] = target: ede1Δ591–1381 (myeGFP / mCherry fusions) (S. cerevisiae) (UniProt P34216); assay: fluorescence cross-correlation spectroscopy (FCCS); self-interaction: living diploid yeast cells with one allele fused to (3)myeGFP and one to (3)mCherry, cytoplasm; apparent (effective) KD, to be taken as the upper limit since complexes of one colour are not seen
binder,measurement,setting,value
B1,binding,Apl3 [1],no binding
same,binding,Apl3 [2],no binding
same,binding,Ede1 (S. cerevisiae),no binding
B2,binding,Ste11-3mCherry,no binding (tested: > 1 μM)
B3,binding,[3],no binding
same,binding,[4],no binding (tested: > 1 μM)
